Results are given in words; binding and its absence hold for the method and conditions named. Some binding calls cover weakened binding; strength is not graded here.
Legend:
[1] = molecular target: T1, recombinant mouse integrin αvβ3 (R&D Systems, 7889-AV-050) (mouse) (UniProt P43406+O54890); assay: SPR, Mn2+
[2] = molecular target: T1, recombinant mouse integrin αvβ3 (R&D Systems, 7889-AV-050) (mouse); assay: SPR (Biacore), WT mICOSL immobilised on a CM5 chip, αvβ3 as analyte, 0.2 mM Ca2+ / 0.1 mM Mg2+
[3] = molecular target: T1, recombinant mouse integrin αvβ3 (R&D Systems, 7889-AV-050) (mouse); assay: SPR (Biacore), mICOSL immobilised on a CM5 chip, αvβ3 as analyte, active αvβ3 with Mn2+; the species of the αvβ3 is not named on the sheet or in the legend
[4] = molecular target: T1, recombinant mouse integrin αvβ3 (R&D Systems, 7889-AV-050) (mouse); assay: SPR inhibition assay, mICOSL immobilised, active αvβ3 alone injected (150 nM according to the legend); the species of the αvβ3 is not named on the sheet or in the legend

Protein sequences, listed by entry. Tags and fused reporters are not part of them. Lines headed by an entry give the natural chain unless they say otherwise; changes in a name come on top.
UniProt P43406: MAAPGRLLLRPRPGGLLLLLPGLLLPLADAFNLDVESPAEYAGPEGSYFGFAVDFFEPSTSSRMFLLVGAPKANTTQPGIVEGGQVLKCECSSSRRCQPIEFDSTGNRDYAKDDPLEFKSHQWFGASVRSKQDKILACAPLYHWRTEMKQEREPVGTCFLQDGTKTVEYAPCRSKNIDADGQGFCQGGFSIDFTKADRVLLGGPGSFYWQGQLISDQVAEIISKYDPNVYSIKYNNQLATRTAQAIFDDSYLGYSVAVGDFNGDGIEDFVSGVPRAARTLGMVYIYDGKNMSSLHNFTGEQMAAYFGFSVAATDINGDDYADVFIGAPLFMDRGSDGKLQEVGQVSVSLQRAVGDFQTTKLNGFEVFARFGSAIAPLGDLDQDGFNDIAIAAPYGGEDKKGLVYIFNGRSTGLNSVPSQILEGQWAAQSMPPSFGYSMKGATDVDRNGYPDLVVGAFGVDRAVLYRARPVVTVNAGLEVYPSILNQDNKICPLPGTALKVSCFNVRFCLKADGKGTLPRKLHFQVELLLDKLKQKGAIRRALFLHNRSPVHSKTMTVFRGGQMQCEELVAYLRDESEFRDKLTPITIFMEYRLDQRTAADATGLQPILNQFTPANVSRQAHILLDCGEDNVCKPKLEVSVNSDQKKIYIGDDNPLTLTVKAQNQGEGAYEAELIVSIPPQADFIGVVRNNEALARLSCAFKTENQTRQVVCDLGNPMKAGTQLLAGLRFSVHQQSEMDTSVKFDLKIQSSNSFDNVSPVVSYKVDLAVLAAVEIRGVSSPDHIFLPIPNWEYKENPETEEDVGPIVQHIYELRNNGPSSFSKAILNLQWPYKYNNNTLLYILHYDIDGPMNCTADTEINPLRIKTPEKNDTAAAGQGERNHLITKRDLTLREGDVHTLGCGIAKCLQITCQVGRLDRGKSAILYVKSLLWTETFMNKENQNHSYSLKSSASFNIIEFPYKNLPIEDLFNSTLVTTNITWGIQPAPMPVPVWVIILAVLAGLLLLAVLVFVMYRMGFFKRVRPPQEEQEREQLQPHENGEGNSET
UniProt O54890: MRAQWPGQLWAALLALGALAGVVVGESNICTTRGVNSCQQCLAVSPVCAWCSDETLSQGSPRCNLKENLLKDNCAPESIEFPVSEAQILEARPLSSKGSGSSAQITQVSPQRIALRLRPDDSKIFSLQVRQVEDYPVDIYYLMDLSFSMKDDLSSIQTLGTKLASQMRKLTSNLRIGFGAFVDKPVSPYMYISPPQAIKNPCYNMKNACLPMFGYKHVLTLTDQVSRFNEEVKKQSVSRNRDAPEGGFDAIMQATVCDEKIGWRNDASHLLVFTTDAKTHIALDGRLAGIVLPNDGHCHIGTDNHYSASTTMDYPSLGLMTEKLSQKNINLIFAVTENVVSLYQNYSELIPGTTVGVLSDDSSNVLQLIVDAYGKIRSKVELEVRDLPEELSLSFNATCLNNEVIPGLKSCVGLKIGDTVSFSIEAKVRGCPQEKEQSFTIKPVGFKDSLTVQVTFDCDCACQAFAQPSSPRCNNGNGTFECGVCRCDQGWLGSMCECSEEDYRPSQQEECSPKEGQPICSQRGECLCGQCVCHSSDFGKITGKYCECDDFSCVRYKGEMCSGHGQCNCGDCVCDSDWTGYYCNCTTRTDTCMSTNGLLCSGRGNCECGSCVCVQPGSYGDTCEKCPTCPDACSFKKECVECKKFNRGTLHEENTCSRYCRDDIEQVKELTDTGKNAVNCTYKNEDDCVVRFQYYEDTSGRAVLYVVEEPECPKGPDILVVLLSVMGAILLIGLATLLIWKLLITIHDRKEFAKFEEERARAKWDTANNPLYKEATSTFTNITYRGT
UniProt Q9JHJ8: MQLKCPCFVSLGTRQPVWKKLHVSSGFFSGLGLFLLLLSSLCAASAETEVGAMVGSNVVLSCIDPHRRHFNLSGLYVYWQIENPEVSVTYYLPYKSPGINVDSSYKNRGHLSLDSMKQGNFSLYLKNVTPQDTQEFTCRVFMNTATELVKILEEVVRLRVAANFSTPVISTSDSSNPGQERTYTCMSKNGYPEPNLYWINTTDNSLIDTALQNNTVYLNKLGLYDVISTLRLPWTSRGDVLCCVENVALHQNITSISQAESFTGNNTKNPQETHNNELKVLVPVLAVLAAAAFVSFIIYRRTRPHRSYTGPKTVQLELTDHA

Measured: binding

mouse ICOSL, wild type (RGD), full-length, N-terminal His-tag (from UniProt Q9JHJ8 47-277) (ligand)
binds: all assays above

From patent publication US20210208163A1
